# Measurements from patent US6645490B2, “Chimeric proteins with cell-targeting specificity and apoptosis-inducing activities” (priority 1998, dated 2003).
# At least one compound was matched to its structure with a doubt left.
# Tested on: Human peripheral blood lymphocytes
# Assay: Assay for identifying apoptotic cells, FACS of fresh lymphocytes
# Format: cell-based
# Conditions: dexamethasone 10^-7 M; FIG. 6B
# Method: Human peripheral blood lymphocytes from healthy donors were separated using Ficoll-Isopaque gradient (1.077) (Pharmacia) and used immediately. Lymphocytes were cultured in 5% CO2 in air in RPMI 1640 medium supplemented with 10% fetal calf serum, 200 μg/ml L-glutamate, 50 μg/ml penicillin, 50 μg/ml streptomycin, 50 μg/ml glutamine and 5×10^−5 M 2-β mercaptoethanol. Increasing concentrations of IL2-Bax (insoluble fraction, 6M Gu-HCl treated) were added to the lymphocytes for 22 hr. Cells were then stained with:
# A. Propidium Iodide (PI, 3.5 μg/ml)
# B. Propidium Iodide with a detergent for measuring cell cycle (0.7 ml of the PI buffer: 50 μg/ml PI, 0.1% Nacitrate, 0.1% Triton×100, were added to a cell pellet of ˜10^6 cells). Cells were then analyzed by FACS.
smiles,measurement,value
"C[C@@H]1C[C@H]2[C@@H]3CCC4=CC(=O)C=C[C@]4(C)[C@@]3(F)[C@@H](O)C[C@]2(C)[C@@]1(O)C(=O)CO [dexamethasone, reference compound]",Induction of apoptosis in fresh lymphocytes,weak inducer of apoptosis
